{"source": "paper PMC9237128", "about": "“Molecular insights into intra-complex signal transmission during stressosome activation” (Communications Biology, 2022)", "biological_target": "Listeria innocua RsbR/RsbS stressosome complex (LiRsbRS) (Listeria innocua) (UniProt Q92DC6+Q7AP18)", "assay": "negative stain EM; first fraction of LiRsbRS from the DEAE run (eluted at 50 mM NaCl); also SEC peak fractions at 100-1000 mM NaCl, with more interaction between complexes at higher ionic strength; both purified", "note": "Results are given in words; binding and its absence hold for the method and conditions named. Some results given as binding are weak or reduced against the parent protein; the word gives no strength."}
{"binder": "Listeria innocua RsbR/RsbS stressosome complex (LiRsbRS) (complex, UniProt Q92DC6 1-278; Q7AP18 1-118, phosphothreonine at 241 (in RsbR protomers interacting with RsbS)) chain 1: MYKDFANFIRTNKKDLLNNWMNEMEKQSDPLINDIAKEPMYEETSIEFVDLIVSNITENGSKFNEKLDDFAEKVVHLGWPIHFVTTGLRVFGLLVYTAMRDEDLFLKREEKPEDDAYYRFETWLSSMYNKVVTAYADTWEKTVSIQKSALQELSAPLLPIFEKISVMPLIGTIDTERAKLIIENLLIGVVKNRSEVVLIDITGVPVVDTMVAHHIIQASEAVRLVGCQAMLVGIRPEIAQTIVNLGIELDQIITTNTMKKGMERALALTNREIVEKEG chain 2: MGIPILKLGECLLISIQSELDDHTAVEFQEDLLAKIHETSARGVVIDITSIDFIDSFIAKILGDVVSMSKLMGAKVVVTGIQPAVAITLIELGITFSGVLSAMDLESGLEKLKQELGE", "values": [{"measurement": "binding", "result": "binds"}]}
